Data taken from ChEMBL document CHEMBL3988442, “University of Dundee, Small-Polar-MMV Screening Library” (2021).

The filed quantity is “Percent Effect” (%).
The record does not define 0% and 100%; most values in the screen are far below 50% and negative numbers occur (in some assays of this library far below -100).
Compounds were drawn at random from those tested, without regard to their results.

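Assay of Toxoplasma gondii numbers, read through their beta-galactosidase reporter with a colour substrate. Tested at 10 µM. The record gives no direction; the compounds picked for IC50 retests had high values, so higher reads as fewer parasites. Of about 67,000 compounds tested this way, about 260 (0.38%) reached 50% or more in at least one test.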

- CCCc1nn(C2CCN(C(C)C)C2=O)c(=O)o1 (centres undefined) | -40.95%
- CC(C(=O)N(C)C)N1CCc2onc(-c3cccc(F)c3)c2C1 (centres undefined) | 5.571%
- Cc1ccc(C(NC(=O)CCCN2CCCCC2)C(=O)O)cc1 (centres undefined) | -7.892%
- Cc1cccc(CN2CCC(NS(C)(=O)=O)CC2)n1 | 8.409%
- Cn1ncc2c1C(COCC1CC1)CN(c1ncc(F)cn1)C2 (centres undefined) | 2.709%
- Cc1nccn1-c1cncc(C2CCCN2Cc2ccccc2)n1 (centres undefined) | 7.613%
- CCc1nnc(CN2CCC(N3CCN(CC)C3=O)CC2)o1 | 3.337%
- [H][C@]12CCN(C(=O)c3cc(C)on3)C[C@@]1([H])[C@H](CN1CCCC1)OC2 | -5.459%
- CC(C)CN1CCC2(CC1)CN(C(=O)C(C)C)C2.O=C(O)C(F)(F)F | -1.281%
- Cc1cc(C)n(CC2CCCN2C(=O)c2ccc3nncn3c2)n1 (centres undefined) | -4.493%
- O=C(CN1C(=O)CCNC1=O)N1CCOC(c2ccc(F)cc2)C1 (centres undefined) | 11.31%
- Nc1ncc(C(=O)N2CCC3(CCCO3)CC2)c(-c2ccccc2)n1 | -2.197%
- CC1(C)Cc2c(cnn2-c2ccccc2)C(NC2CCSCC2)C1 (centres undefined) | -3.38%
- Cn1cc(CN2CCc3c(nnn3C)C2COCc2ccccc2)cn1.O=C(O)C(F)(F)F (centres undefined) | -12.11%
- CS(=O)(=O)N1CCOCC2(CCN(C(=O)c3ccco3)CC2)C1 | 12.28%
- Cc1nnc(NCC2(c3ccccc3)CCC2)c(C#N)c1C | -3.666%
- CC(C)C(C)NC(=O)Nc1cccn(C)c1=O (centres undefined) | 0.8039%
- Cc1nc(NCC(O)CN2CCCCCC2)c2c(C)noc2n1 (centres undefined) | 5.532%
- O=C(O)C(c1ccc2c(c1)OCO2)N1CCCC1 (centres undefined) | 4.137%
- COc1ccccc1NC(=O)NC1(c2noc(CN(C)C)n2)CCCC1 | -7.107%
- CCc1nc(CNC(C)(CO)C2CCCCC2)no1 (centres undefined) | -6.581%
- CN1CCC2(CC1)C(=O)N(CC1CC1)c1ccccc12.O=C(O)C(F)(F)F | 3.062%
- O=C(CCc1ccco1)N1CCCC(n2cccn2)C1 (centres undefined) | -18.17%
- CN1CCN(C(=O)c2cnn(-c3ccccc3Cl)c2)CC1 | 4.068%
- CC(C)N(C)Cc1cnc2n1CCN(Cc1ccc(F)cc1)C2.O=C(O)C(F)(F)F.O=C(O)C(F)(F)F | 1.836%
- O=C(O)c1ccnc(-c2ccnc(NCCc3cscn3)n2)c1 | 0.2882%
- Cn1cc(NC(=O)Cc2cccs2)c(=O)n(C)c1=O | -11.35%
- O=C(O)C(F)(F)F.O=C(O)C(F)(F)F.O=C(O)C(F)(F)F.[H][C@]12CCN(Cc3cccnc3)[C@@]1([H])CC[C@@H](COCCN1CCCC1)O2 | -13%
- O=C(NCCc1ccccn1)N1CCOC(c2ccccc2Cl)C1 (centres undefined) | 5.393%
- Cc1cccc(-c2noc(C)c2C(=O)NC2CCCOC2)c1.O=C(O)CC(O)(CC(=O)O)C(=O)O (centres undefined) | 23.63%
- O=C(c1sccc1-n1cnnn1)N1CCC(Cc2ccccc2)CC1 | 8.384%
- [H][C@@]12CS(=O)(=O)C[C@]1([H])N(S(=O)(=O)N1CCc3ccccc3C1)CCN2CC | -1.256%
- CCN1CCC2(COCc3c(C)nc(N(C)C)nc32)C1 (centres undefined) | -4.414%
- Cc1nc(CN(CCc2ccccc2)C2CCN(C)CC2)no1 | 2.59%
- O=C(NS(=O)(=O)c1ccccc1)c1ccccc1F | 6.268%
- Cc1nc(CCNC(C)c2ccc3c(c2)OCCCO3)cs1 (centres undefined) | -33.8%
- CC(=O)NCc1ccc(-n2ccnc2C)nc1 | 12.93%
- COc1cccc(OCC(=O)NS(=O)(=O)c2ccc(Br)s2)c1 | 8.581%
- Cc1csc(N2CCN(C(=O)CCCNc3ncccn3)CC2)n1 | -4.73%
- O=C(NCC1=CCCCC1)C(c1cccnc1)N1CCCC1 (centres undefined) | 16.64%
- CC(C)c1cc(=O)[nH]c(-c2ccccc2CN2CCCCCC2)n1 | -2.193%
- N#Cc1c(N)nc2c(c1-c1c[nH]nc1C1CCCCC1)CC(N)CC2 (centres undefined) | -28.45%
- COC(=O)NCC(=O)N(C)CC1Cc2ccccc2CN1C (centres undefined) | 2.942%
- Cn1c(=O)c2c(n3ncnc13)NC(=O)CC2c1ccc(F)cc1 (centres undefined) | 0.4264%
- O=C(c1cccc(S(=O)(=O)NCCCc2ccco2)c1)N1CCOCC1 | -0.1095%
- [H][C@]12CN(C(=O)c3cccnc3)CCN1C(=O)N(Cc1ccc(F)cc1)C2 | -2.136%
- Cc1nc(N(C)C)nc(C)c1NC(=O)c1ccccc1F | 20.22%
- c1ccc(-c2nnc(CN3CCCC(Cn4cncn4)C3)o2)cc1 (centres undefined) | -32.63%
- O=C1CCN(C(=O)C2(c3ccc(F)cc3)CCCC2)CCN1 | -10.73%
- O=C(c1cnccn1)N(CCO)Cc1cc(Br)ccc1F | 8.347%
- COc1ccc(CN2CCn3cc(CNC(=O)C4CCC4)nc3C2)cc1.O=C(O)C(F)(F)F | -2.197%
- Cc1ccc(Cl)cc1NS(=O)(=O)c1cc(C(N)=O)n(C)c1 | 7.124%

Some entries from above, unchanged:

| structure | percent effect |
|---|---|
| `COc1ccccc1NC(=O)NC1(c2noc(CN(C)C)n2)CCCC1` | -7.107 |
| `COc1cccc(OCC(=O)NS(=O)(=O)c2ccc(Br)s2)c1` | 8.581 |
| `CC(=O)NCc1ccc(-n2ccnc2C)nc1` | 12.93 |
| `O=C(NCC1=CCCCC1)C(c1cccnc1)N1CCCC1` (centres undefined) | 16.64 |
| `Cc1nc(NCC(O)CN2CCCCCC2)c2c(C)noc2n1` (centres undefined) | 5.532 |
| `CC(C)N(C)Cc1cnc2n1CCN(Cc1ccc(F)cc1)C2.O=C(O)C(F)(F)F.O=C(O)C(F)(F)F` | 1.836 |